Data as given in PubChem BioAssay AID1508588 (Peter MacCallum Cancer Centre, 2020)
Purpose: 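Which gene losses make BRAF-mutant melanoma cells more responsive to vemurafenib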 (primary screen). Cells: human WM266.4 melanoma cells (BRAF V600 mutant). Reagents: siRNA pool against human genes, 40 nM. Timing: 96 h from transfection to read-out. Challenge: vemurafenib 300 nM (about IC25), added 48 h after transfection, for 48 h; comparison arm got DMSO vehicle only. Read-out: 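Ratios to non-targeting siRNA for cell gain, counted as DAPI nuclei after minus before drug and averaged over two replicates, and for absorbance-read medium lactate per cell; both binned into fold-change classes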. Direction: cell gain with vemurafenib: higher = more cell gain than with non-targeting siRNA; lactate per cell with vemurafenib: higher = more lactate made per cell. Rule for the call: 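a knock-down counts as enhancing when its fold-change classes with vehicle and with vemurafenib, taken together, show a stronger drug effect on cell gain or lactate per cell; exact class pairs not stated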. Meaning of the calls: active = enhances vemurafenib effect; inactive = no enhancement seen.
The whole screen tested about 18,000 reagents; below is a part drawn at random. In the full data, 790 (4.4%) are marked active. 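Calls rest on a combination of fold-change classes in drug and vehicle arms, not all shown here.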 Entries without a mark were called inactive. Reagent sequences are not shown.

gene | cell gain with vemurafenib | lactate per cell with vemurafenib
ARPC1B | 0.6 | 1.23
VPS37D | 0.6 | 0.84
SPARC | 0.79 (active) | 0.15
UBQLN4 | -0.04 | 1.69
PI3 | 0.26 | 1.02
PRSS37 | 1.13 | 0.8
ZDHHC8 | 0.19 (active) | 0.41
TRAPPC11 | 0.75 | 0.78
CTLA4 | 0.65 | 0.94
FHL5 | 0.64 | 0.67
ARID3C | 0.6 | 0.54
PCMTD2 | 0.86 | 0.74
PEX11A | 0.53 | 1
HPRT1 | 0.38 | 2.04
EEF2KMT | 0.12 | 0.12
DNAJC18 | 0.89 | 0.6
DEFB131A | 0.78 | 0.54
CLEC2L | 0.62 | 1.48
CHRNB4 | 0.63 | 0.83
SIM2 | 0.66 | 1.37
MIEN1 | 0.4 | 0.96
PMFBP1 | 0.42 | 1.31
CGN | 0.88 | 0.84
TIMM21 | 1.05 | 0.76
CDK11A | 0.17 | 1.88
HPS6 | 0.78 | 0.97
TPM3 | 0.73 | 0.76
CHST6 | 0.57 | 1.79
HES7 | 0.57 | 1.27
TCIM | 0.2 (active) | 0.16
PDGFB | 0.83 | 0.97
FITM2 | 0.95 | 0.44
ARLN | 0.19 | 0.97
C18orf32 | 0.58 | 0.68
BRIX1 | 0.26 | 1
POLR1A | 0.91 | 0.38
PPP1R21 | 0.89 | 0.73
ADRB3 | 0.28 | 1.44
ECRG4 | 0.96 | 0.57
SLC35G5 | 0.82 | 0.26
MAPRE1 | 1.2 | 1.17
SMAD7 | 1.13 | 0.96
ANKDD1A | 0.93 | 0.65

Copied from above (15 entries):
gene | cell gain with vemurafenib | lactate per cell with vemurafenib
HPRT1 | 0.38 | 2.04
EEF2KMT | 0.12 | 0.12
DNAJC18 | 0.89 | 0.6
DEFB131A | 0.78 | 0.54
CLEC2L | 0.62 | 1.48
CHRNB4 | 0.63 | 0.83
SIM2 | 0.66 | 1.37
MIEN1 | 0.4 | 0.96
PMFBP1 | 0.42 | 1.31
CGN | 0.88 | 0.84
TIMM21 | 1.05 | 0.76
CDK11A | 0.17 | 1.88
HPS6 | 0.78 | 0.97
TPM3 | 0.73 | 0.76
CHST6 | 0.57 | 1.79

Additional reagents:
gene | cell gain with vemurafenib | lactate per cell with vemurafenib
RPS11 | -0.1 | 1
GTF2H5 | 0.23 | 1.3
TLR4 | 0.08 | 1.27
LRRN4CL | 0.99 | 0.48
H4C16 | 0.12 | 0.51
ACAP2 | 0.83 | 0.65
CCDC88C | 1.02 | 1.66
DAGLA | 0.87 | 0.86
UBN1 | 0.73 | 0.96
MITD1 | 0.74 | 0.94
TMEM132A | 0.61 | 0.74
ESPNL | 0.46 | 1.11
SCYL2 | 1.13 | 0.62
EPHB1 | 0.57 | 1.55
TIMELESS | 0.08 | 1.52
HAO1 | 0.64 | 0.61
IFI6 | 0.42 | 1.19
BLK | 0.98 (active) | 0.44
PRMT5 | 0.88 | 1.09
UCN3 | 0.92 | 0.85
TSHZ1 | 0.38 | 2.39
CHRNB2 | 0.5 | 0.98
NPTX2 | 0.79 | 0.42
AREL1 | 0.57 | 1.21
STON1-GTF2A1L | 0.68 | 0.76
STYK1 | 0.28 | 0.72
CEP55 | 0.47 | 1.25
CCS | 0.82 | 1.05
SLC6A16 | 0.67 | 0.68
XPNPEP1 | 0.56 | 1.03
EDN1 | 0.57 | 0.26
GTF2H2C_2 | 0.6 | 1.19
SLC22A11 | 0.82 | 0.92
RAB6A | 0.68 | 0.86
KRIT1 | 0.9 | 0.52
REEP6 | 0.57 | 1.37
UMPS | 0.51 (active) | 0.7
CTAG2 | 0.45 | 1.86
GEMIN8 | 0.69 | 0.76
CDH10 | 0.62 | 0.41
SMCO1 | 0.93 | 0.55
COLEC12 | 1 | 0.72
PYCR3 | 0.46 | 0.3
KRTAP10-7 | 0.5 | 0.85
THUMPD2 | 0.54 | 1.09
DGKE | 0.79 | 0.86
DDX31 | 0.21 | 2.17
CYSRT1 | 0.71 | 1.55
PGPEP1 | 0.36 | 0.78
ATG4A | 0.34 | 1.62
ASB18 | 0.33 | 1.84
NUDT12 | 0.53 | 1.07
OR51F2 | 1.01 | 0.46
ARPC5 | 0.3 | 0.92
CREBL2 | 0.44 | 0.68
ALG10 | 0.63 | 0.99
PRORSD1P | 0.34 | 0.58
NDUFS2 | 0.44 | 0.67
LCE3A | -0.02 | 2.16
AASDH | 0.76 | 0.98
NME1-NME2 | 0.14 | 1.73
BEST4 | 0.64 | 0.76
PRLH | 0.32 | 1.04
LYRM2 | 0.36 (active) | 0.45
